In the supplement of paper PMC10849652:
The list shows a part of the results.

Sequences of proteins named here, by UniProt entry; tags and fusion partners are left off. A change or cut given only in a name is not applied to a line headed by its entry.
UniProt Q9Y5A7: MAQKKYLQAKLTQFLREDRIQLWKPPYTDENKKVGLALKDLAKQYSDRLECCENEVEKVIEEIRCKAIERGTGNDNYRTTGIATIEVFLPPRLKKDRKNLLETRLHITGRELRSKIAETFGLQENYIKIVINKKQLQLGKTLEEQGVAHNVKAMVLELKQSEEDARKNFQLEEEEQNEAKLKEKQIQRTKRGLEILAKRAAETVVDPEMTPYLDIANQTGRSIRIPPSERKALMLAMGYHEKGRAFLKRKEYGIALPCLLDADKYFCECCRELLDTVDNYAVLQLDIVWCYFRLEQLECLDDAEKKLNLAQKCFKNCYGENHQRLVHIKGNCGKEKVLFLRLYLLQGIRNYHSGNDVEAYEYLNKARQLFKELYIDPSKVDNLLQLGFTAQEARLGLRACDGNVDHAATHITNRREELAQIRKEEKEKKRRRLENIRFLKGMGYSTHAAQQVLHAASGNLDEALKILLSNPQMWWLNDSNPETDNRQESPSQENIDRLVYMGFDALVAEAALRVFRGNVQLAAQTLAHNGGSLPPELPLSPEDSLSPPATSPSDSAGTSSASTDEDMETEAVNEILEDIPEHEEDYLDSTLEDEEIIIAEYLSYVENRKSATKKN
UniProt Q9H857: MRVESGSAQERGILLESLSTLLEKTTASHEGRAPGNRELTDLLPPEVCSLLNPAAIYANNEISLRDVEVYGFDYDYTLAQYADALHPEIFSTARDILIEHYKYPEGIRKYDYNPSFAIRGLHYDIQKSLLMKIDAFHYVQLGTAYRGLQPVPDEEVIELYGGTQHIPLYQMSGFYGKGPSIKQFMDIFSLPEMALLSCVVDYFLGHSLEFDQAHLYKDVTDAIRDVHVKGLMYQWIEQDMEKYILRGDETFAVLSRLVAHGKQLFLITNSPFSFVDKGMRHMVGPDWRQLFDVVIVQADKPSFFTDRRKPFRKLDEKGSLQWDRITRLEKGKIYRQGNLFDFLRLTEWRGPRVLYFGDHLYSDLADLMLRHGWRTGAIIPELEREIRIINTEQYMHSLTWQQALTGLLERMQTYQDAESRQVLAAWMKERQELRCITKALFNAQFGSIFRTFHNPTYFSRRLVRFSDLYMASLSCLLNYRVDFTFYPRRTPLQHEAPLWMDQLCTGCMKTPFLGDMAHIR
UniProt Q5SWX8: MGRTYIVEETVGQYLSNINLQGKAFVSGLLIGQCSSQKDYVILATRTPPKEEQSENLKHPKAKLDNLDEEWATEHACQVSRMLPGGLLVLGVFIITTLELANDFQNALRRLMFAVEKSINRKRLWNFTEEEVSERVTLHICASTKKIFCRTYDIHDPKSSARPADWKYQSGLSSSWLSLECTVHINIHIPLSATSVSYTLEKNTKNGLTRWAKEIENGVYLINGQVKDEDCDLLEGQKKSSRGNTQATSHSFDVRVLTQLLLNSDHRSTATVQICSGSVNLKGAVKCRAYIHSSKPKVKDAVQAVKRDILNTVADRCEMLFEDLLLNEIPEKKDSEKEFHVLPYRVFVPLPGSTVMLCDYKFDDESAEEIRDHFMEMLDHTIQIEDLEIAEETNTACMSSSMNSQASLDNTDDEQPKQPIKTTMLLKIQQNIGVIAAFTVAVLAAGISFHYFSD
UniProt Q5SRE5: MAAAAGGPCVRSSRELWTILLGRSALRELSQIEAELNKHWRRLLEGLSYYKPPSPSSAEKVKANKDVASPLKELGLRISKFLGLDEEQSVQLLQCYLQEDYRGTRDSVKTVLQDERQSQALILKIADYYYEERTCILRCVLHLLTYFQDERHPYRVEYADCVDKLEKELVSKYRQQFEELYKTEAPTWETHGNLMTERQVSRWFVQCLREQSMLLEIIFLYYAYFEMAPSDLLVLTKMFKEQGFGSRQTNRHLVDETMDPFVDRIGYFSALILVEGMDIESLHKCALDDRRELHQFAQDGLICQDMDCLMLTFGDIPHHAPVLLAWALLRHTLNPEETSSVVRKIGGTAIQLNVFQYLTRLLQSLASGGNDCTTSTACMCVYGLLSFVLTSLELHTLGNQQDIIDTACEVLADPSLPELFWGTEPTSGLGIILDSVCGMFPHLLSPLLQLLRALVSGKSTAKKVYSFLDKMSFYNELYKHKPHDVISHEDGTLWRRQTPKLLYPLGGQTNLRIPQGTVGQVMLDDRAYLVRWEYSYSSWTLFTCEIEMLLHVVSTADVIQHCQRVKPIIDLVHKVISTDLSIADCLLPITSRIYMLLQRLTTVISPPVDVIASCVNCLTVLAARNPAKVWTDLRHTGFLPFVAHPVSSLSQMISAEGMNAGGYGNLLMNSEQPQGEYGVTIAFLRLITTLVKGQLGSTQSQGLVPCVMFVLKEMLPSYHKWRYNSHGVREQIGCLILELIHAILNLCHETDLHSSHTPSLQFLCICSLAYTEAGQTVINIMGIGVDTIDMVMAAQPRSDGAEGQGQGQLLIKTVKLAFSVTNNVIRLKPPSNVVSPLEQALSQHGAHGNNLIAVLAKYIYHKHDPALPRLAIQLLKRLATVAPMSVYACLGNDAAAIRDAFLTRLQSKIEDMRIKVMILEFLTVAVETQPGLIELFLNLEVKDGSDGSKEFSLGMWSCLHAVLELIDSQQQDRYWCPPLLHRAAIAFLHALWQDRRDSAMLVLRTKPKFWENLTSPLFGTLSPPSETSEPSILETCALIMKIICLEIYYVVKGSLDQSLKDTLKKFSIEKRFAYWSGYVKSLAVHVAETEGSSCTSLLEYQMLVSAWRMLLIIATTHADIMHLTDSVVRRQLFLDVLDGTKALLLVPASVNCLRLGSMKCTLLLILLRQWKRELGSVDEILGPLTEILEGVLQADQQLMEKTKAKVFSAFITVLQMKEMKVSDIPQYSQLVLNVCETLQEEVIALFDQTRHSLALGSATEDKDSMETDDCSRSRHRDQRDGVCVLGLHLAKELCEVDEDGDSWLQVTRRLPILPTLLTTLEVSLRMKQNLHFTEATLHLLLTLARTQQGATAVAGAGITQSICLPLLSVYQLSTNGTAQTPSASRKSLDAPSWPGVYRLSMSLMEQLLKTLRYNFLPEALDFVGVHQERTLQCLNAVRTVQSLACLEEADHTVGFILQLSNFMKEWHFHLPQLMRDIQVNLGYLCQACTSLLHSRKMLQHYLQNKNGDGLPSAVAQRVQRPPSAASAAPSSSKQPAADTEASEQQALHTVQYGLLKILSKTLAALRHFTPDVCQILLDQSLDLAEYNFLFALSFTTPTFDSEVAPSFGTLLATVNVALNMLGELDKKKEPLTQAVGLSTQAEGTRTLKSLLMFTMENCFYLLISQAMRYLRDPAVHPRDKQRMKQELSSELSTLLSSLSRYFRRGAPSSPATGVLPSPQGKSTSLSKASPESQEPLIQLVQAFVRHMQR
UniProt P53384: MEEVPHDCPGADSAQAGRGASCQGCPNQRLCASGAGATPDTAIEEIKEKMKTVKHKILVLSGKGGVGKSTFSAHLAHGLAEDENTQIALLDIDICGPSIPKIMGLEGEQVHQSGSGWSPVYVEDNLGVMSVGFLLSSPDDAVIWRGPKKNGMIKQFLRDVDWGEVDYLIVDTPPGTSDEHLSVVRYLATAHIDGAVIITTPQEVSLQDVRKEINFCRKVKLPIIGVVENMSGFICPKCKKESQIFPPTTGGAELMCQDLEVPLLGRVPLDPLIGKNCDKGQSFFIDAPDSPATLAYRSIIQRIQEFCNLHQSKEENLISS
UniProt Q96FW1, whole entry, looked up: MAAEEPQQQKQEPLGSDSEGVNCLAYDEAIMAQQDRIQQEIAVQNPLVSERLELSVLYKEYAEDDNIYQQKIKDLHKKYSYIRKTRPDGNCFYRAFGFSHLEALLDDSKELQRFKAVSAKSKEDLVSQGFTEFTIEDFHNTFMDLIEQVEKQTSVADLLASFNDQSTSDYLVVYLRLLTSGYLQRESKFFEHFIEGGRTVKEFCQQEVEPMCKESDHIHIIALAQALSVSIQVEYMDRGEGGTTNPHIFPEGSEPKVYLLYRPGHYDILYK
UniProt Q9H0G5: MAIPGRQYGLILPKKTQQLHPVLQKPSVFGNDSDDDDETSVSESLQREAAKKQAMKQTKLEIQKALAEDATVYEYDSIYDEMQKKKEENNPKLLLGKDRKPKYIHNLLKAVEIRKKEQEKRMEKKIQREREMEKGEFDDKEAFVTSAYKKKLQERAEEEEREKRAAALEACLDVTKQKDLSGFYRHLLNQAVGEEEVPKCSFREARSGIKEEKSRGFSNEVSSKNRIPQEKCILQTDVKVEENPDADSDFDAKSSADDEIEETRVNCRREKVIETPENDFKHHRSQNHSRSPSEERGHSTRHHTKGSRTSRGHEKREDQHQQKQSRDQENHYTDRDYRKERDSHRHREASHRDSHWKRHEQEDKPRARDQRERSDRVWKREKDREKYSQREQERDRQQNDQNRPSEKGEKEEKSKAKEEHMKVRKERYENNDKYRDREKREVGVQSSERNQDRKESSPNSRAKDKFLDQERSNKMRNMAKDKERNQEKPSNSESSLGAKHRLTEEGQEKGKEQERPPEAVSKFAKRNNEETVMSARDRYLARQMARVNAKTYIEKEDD
UniProt Q6GQQ9: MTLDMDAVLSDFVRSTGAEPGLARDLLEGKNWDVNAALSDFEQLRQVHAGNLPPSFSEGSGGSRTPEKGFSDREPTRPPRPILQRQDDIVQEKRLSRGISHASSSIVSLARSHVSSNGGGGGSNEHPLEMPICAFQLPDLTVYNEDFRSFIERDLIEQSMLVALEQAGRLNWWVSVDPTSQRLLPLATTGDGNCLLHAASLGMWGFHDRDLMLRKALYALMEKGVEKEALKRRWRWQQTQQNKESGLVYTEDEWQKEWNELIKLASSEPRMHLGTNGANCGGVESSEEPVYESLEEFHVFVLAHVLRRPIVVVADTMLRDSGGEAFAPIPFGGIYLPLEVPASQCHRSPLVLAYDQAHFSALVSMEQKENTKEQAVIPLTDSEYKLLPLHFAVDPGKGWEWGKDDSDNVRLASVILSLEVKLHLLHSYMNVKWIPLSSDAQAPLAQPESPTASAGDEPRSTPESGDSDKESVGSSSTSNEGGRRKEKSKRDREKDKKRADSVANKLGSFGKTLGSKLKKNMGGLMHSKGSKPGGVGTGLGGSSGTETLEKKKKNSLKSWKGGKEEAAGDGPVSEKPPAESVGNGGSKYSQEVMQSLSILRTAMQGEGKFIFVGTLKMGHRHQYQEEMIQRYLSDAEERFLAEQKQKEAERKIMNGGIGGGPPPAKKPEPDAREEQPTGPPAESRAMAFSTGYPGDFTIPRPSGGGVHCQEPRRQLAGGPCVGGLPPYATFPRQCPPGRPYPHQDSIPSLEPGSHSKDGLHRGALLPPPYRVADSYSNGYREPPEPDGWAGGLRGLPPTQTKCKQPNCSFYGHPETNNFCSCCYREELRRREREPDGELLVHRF
UniProt Q9H6K4: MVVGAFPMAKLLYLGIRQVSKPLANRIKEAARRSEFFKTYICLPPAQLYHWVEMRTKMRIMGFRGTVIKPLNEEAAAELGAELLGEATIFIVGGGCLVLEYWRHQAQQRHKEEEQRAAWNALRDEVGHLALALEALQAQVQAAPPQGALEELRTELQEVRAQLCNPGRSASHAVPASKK
UniProt Q96MG7: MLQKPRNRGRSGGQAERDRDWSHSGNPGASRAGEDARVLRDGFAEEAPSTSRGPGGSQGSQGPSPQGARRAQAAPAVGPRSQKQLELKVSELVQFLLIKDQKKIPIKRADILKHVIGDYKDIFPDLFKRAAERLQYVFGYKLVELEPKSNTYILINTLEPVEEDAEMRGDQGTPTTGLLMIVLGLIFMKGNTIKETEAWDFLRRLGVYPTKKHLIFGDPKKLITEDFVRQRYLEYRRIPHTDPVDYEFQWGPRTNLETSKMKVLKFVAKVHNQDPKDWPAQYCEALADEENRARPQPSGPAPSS
UniProt Q8WV22: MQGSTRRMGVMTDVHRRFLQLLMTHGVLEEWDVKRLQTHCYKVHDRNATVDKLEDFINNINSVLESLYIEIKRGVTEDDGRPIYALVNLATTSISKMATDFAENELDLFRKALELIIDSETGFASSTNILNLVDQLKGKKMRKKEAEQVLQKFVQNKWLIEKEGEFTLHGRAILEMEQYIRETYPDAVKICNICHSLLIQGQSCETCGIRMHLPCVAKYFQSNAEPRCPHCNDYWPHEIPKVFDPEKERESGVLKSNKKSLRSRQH
UniProt Q8IVD9: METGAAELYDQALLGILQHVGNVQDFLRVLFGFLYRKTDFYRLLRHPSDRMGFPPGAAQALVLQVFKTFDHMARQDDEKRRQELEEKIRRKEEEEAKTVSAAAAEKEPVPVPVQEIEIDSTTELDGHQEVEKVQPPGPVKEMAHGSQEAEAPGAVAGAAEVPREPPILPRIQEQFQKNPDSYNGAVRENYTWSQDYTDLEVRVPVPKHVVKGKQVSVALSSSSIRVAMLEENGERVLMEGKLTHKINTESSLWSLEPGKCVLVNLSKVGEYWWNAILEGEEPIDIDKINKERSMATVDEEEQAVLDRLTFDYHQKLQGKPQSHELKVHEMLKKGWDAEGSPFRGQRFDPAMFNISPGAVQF

Legend:
Test in all cases: log2 fold change, soluble protein after heating vs DMSO (PISA); higher = thermal stabilisation; K562 cells, 10 uM, 30 min; active = over 0.2 and 3.5 SD of the protein, either way, in both replicates (recomputed)
saracatinib = compound: CN1CCN(CCOc2cc(OC3CCOCC3)c3c(Nc4c(Cl)ccc5c4OCO5)ncnc3c2)CC1 [saracatinib]
Summary of the method: (§1)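 Aliquots of K562 cells (2×10^6 cells/mL) treated with 10 μM compound for 30 min were heated for 3 min over 48°C-58°C. After pooling and extraction in PBS with 0.5% NP-40 at 4°C, soluble protein from a 21,000xg, 90 min spin was quantified by TMTpro 16plex LC-MS/MS with channel sums equalised. Thermal stability is expressed against control samples, from duplicates, as a log2 fold change.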

sotrastaurin = compound: CN1CCN(c2nc(C3=C(c4c[nH]c5ccccc45)C(=O)NC3=O)c3ccccc3n2)CC1 [sotrastaurin]
Summary of the method: as §1

alvocidib = compound: CN1CC[C@H](c2c(O)cc(O)c3c(=O)cc(-c4ccccc4Cl)oc23)[C@H](O)C1 [alvocidib]
Summary of the method: as §1

Tubastatin A = compound: CN1CCc2c(c3ccccc3n2Cc2ccc(C(=O)NO)cc2)C1 [Tubastatin A]
Summary of the method: as §1

[1] = compound: CNC(=O)C1=CC=CC=C1NC2=NC(=NC=C2Cl)NC3=C(C=C(C=C3)N4CCOCC4)OC
Summary of the method: as §1

defactinib = compound: CNC(=O)c1ccc(Nc2ncc(C(F)(F)F)c(NCc3nccnc3N(C)S(C)(=O)=O)n2)cc1 [defactinib]
Summary of the method: as §1

rucaparib = compound: CNCc1ccc(-c2[nH]c3cc(F)cc4c3c2CCNC4=O)cc1 [rucaparib]
Summary of the method: as §1

[2] = compound: CNc1nc(-c2ccc3c(N)n[nH]c3c2)cc(N2C[C@@H](C(=O)NC3CCCCC3)CC[C@H]2C)n1
Summary of the method: as §1

encorafenib = compound: COC(=O)N[C@@H](C)CNc1nccc(-c2cn(C(C)C)nc2-c2cc(Cl)cc(NS(C)(=O)=O)c2F)n1 [encorafenib]
Summary of the method: as §1

[3] = compound: COC(=O)[C@H](CCSC)NC(=O)C1=C(C=C(C=C1)NC[C@H](CS)N)C2=CC=CC=C2
Summary of the method: as §1

[4] = compound: COC1=CC=C(C=C1)CN2C=CC3=C2C=C(C=C3)C(=O)NO
Summary of the method: as §1

filanesib = compound: CON(C)C(=O)N1N=C(c2cc(F)ccc2F)S[C@@]1(CCCN)c1ccccc1 [filanesib]
Summary of the method: as §1

zotarolimus = compound: CO[C@H]1C[C@@H]2CC[C@@H](C)[C@@](O)(O2)C(=O)C(=O)N2CCCC[C@H]2C(=O)O[C@H]([C@H](C)C[C@@H]2CC[C@H](n3cnnn3)[C@H](OC)C2)CC(=O)[C@H](C)/C=C(\C)[C@@H](O)[C@@H](OC)C(=O)[C@H](C)C[C@H](C)/C=C/C=C/C=C/1C [zotarolimus]
Summary of the method: as §1

idasanutlin = compound: COc1cc(C(=O)O)ccc1NC(=O)[C@@H]1N[C@@H](CC(C)(C)C)[C@](C#N)(c2ccc(Cl)cc2F)[C@H]1c1cccc(Cl)c1F [idasanutlin]
Summary of the method: as §1

alisertib = compound: COc1cc(Nc2ncc3c(n2)-c2ccc(Cl)cc2C(c2c(F)cccc2OC)=NC3)ccc1C(=O)O [alisertib]
Summary of the method: as §1

[5] = compound: COc1cc2nc(-c3cc(F)ccc3O)nc(N[C@@H]3CNC[C@H]3C(C)(C)O)c2cc1OC
Summary of the method: as §1

gefitinib = compound: COc1cc2ncnc(Nc3ccc(F)c(Cl)c3)c2cc1OCCCN1CCOCC1 [gefitinib]
Summary of the method: as §1

[6] = compound: COc1cccc2cc(-c3nc([C@H]4CC[C@H](C(=O)O)CC4)n4ncnc(N)c34)[nH]c12
Summary of the method: as §1

lapatinib = compound: CS(=O)(=O)CCNCc1ccc(-c2ccc3ncnc(Nc4ccc(OCc5cccc(F)c5)c(Cl)c4)c3c2)o1 [lapatinib]
Summary of the method: as §1

pictilisib = compound: CS(=O)(=O)N1CCN(Cc2cc3nc(-c4cccc5[nH]ncc45)nc(N4CCOCC4)c3s2)CC1 [pictilisib]
Summary of the method: as §1

Measured: log2 fold change

NUB1 (UniProt Q9Y5A7)
inactive: saracatinib -0.037 | sotrastaurin -0.085 | alvocidib -0.05 | Tubastatin A 0.153 | [1] 0.06 | defactinib -0.017 | rucaparib 0.153 | [2] 0.09 | encorafenib 0.044 | [3] 0.055 | [4] -0.042 | filanesib 0.147 | zotarolimus 0.039 | idasanutlin 0.111 | alisertib -0.088 | [5] -0.12 | gefitinib 0.068 | [6] -0.005 | lapatinib 0.002 | pictilisib 0.143

NT5DC2 isoform 2 (UniProt Q9H857)
inactive: saracatinib 0.026 | sotrastaurin 0.086 | alvocidib -0.005 | Tubastatin A -0.035 | [1] -0.001 | defactinib -0.016 | rucaparib -0.009 | [2] -0.036 | encorafenib 0.008 | [3] -0.004 | [4] -0.005 | filanesib -0.046 | zotarolimus -0.007 | idasanutlin -0.076 | alisertib -0.076 | [5] 0.015 | gefitinib 0.017 | [6] 0.087 | lapatinib 0.017 | pictilisib 0.01

ODR4 (UniProt Q5SWX8)
inactive: saracatinib 0 | sotrastaurin -0.014 | alvocidib -0.086 | Tubastatin A 0.014 | [1] -0.033 | defactinib -0.025 | rucaparib 0.078 | [2] 0.03 | encorafenib 0.012 | [3] 0.027 | [4] -0.023 | filanesib 0.02 | zotarolimus 0.02 | idasanutlin -0.022 | alisertib -0.018 | [5] 0.157 | gefitinib 0.037 | [6] -0.05 | lapatinib 0.024 | pictilisib 0.074

NUP188 (UniProt Q5SRE5)
inactive: saracatinib -0.015 | sotrastaurin -0.064 | alvocidib -0.113 | Tubastatin A 0.048 | [1] -0.002 | defactinib -0.104 | rucaparib 0.024 | [2] 0.045 | encorafenib 0.029 | [3] -0.084 | [4] 0.031 | filanesib -0.005 | zotarolimus 0.033 | idasanutlin -0.052 | alisertib 0.008 | [5] 0.072 | gefitinib 0.014 | [6] -0.049 | lapatinib -0.024 | pictilisib 0.031

NUBP1 (UniProt P53384)
inactive: saracatinib 0.011 | sotrastaurin 0.039 | alvocidib -0.067 | Tubastatin A -0.007 | [1] -0.009 | defactinib -0.054 | rucaparib -0.039 | [2] 0.013 | encorafenib 0.005 | [3] -0.089 | [4] -0.022 | filanesib -0.028 | zotarolimus -0.007 | idasanutlin -0.106 | alisertib -0.013 | [5] 0.068 | gefitinib 0.002 | [6] 0.027 | lapatinib -0.047 | pictilisib 0.012

OTUB1 (UniProt Q96FW1)
inactive: saracatinib 0.06 | sotrastaurin 0.044 | alvocidib -0.031 | Tubastatin A 0.015 | [1] 0.02 | defactinib -0.033 | rucaparib -0.041 | [2] -0.01 | encorafenib 0.014 | [3] 0.014 | [4] 0.044 | filanesib -0.064 | zotarolimus 0.036 | idasanutlin -0.041 | alisertib -0.09 | [5] -0.021 | gefitinib -0.019 | [6] 0.024 | lapatinib 0.012 | pictilisib -0.011

NUDT5 (UniProt Q9UKK9)
inactive: saracatinib 0.039 | sotrastaurin 0.018 | alvocidib 0.02 | Tubastatin A -0.026 | [1] -0.035 | defactinib -0.011 | rucaparib -0.092 | [2] -0.045 | encorafenib 0.002 | [3] 0.014 | [4] 0.073 | filanesib -0.023 | zotarolimus -0.017 | idasanutlin 0.016 | alisertib -0.03 | [5] -0.001 | gefitinib -0.015 | [6] 0.077 | lapatinib -0.027 | pictilisib -0.003

NSRP1 (UniProt Q9H0G5)
inactive: saracatinib -0.001 | sotrastaurin 0.038 | alvocidib 0.066 | Tubastatin A 0.002 | [1] -0.082 | defactinib 0.064 | rucaparib 0.197 | [2] 0.015 | encorafenib 0.046 | [3] 0.001 | [4] -0.024 | filanesib 0.243 | zotarolimus -0.003 | idasanutlin 0.163 | alisertib -0.078 | [5] -0.087 | gefitinib -0.029 | [6] -0.023 | lapatinib 0.079 | pictilisib -0.04

OTUD7B (UniProt Q6GQQ9)
inactive: saracatinib 0.021 | sotrastaurin -0.392 | alvocidib 0.071 | Tubastatin A 0.083 | [1] 0.063 | defactinib -0.148 | rucaparib -0.122 | [2] -0.027 | encorafenib 0.002 | [3] 0.006 | [4] 0.169 | filanesib 0.024 | zotarolimus 0.037 | idasanutlin 0.001 | alisertib 0.097 | [5] 0.194 | gefitinib 0.331 | [6] 0.024 | lapatinib 0.088 | pictilisib -0.191

OPA3 (UniProt Q9H6K4)
inactive: saracatinib 0.065 | sotrastaurin 0.04 | alvocidib 0.05 | Tubastatin A -0.056 | [1] -0.053 | defactinib -0.047 | rucaparib -0.025 | [2] -0.084 | encorafenib -0.081 | [3] 0.064 | [4] 0.051 | filanesib 0.005 | zotarolimus -0.064 | idasanutlin 0.017 | alisertib -0.059 | [5] -0.059 | gefitinib 0.255 | [6] 0.026 | lapatinib -0.01

NUP88 (UniProt Q99567)
inactive: saracatinib -0.054 | sotrastaurin -0.214 | alvocidib 0.014 | Tubastatin A 0.037 | [1] 0.02 | defactinib 0.01 | rucaparib 0.207 | [2] 0.076 | encorafenib 0.166 | [3] -0.058 | [4] 0.049 | filanesib 0.195 | zotarolimus 0.072 | idasanutlin 0.065 | alisertib -0.095 | [5] 0.108 | gefitinib -0.015 | [6] -0.088 | lapatinib 0.06 | pictilisib -0.032

NSMCE3 (UniProt Q96MG7)
inactive: saracatinib -0.031 | sotrastaurin -0.027 | alvocidib 0.005 | Tubastatin A -0.127 | [1] 0.033 | defactinib 0.09 | rucaparib 0.121 | [2] -0.047 | encorafenib 0 | [3] -0.041 | [4] 0.035 | filanesib -0.021 | zotarolimus -0.01 | idasanutlin -0.09 | alisertib -0.117 | [5] 0.046 | gefitinib -0.005 | [6] 0.072 | lapatinib -0.064 | pictilisib 0.046

NUP133 (UniProt Q8WUM0)
inactive: saracatinib -0.03 | sotrastaurin -0.022 | alvocidib -0.039 | Tubastatin A 0.197 | [1] -0.001 | defactinib -0.002 | rucaparib 0.119 | [2] -0.078 | encorafenib 0.026 | [3] -0.135 | [4] -0.075 | filanesib 0.27 | zotarolimus 0.042 | idasanutlin 0.212 | alisertib -0.081 | [5] 0.006 | gefitinib -0.062 | [6] -0.045 | lapatinib -0.029 | pictilisib -0.066

NT5C3A (UniProt Q9H0P0)
inactive: saracatinib -0.138 | sotrastaurin -0.207 | alvocidib 0.042 | Tubastatin A 0.057 | [1] 0.072 | defactinib 0.013 | rucaparib 0.143 | [2] 0.153 | encorafenib 0.169 | [3] -0.067 | [4] -0.002 | filanesib 0.109 | zotarolimus 0.044 | idasanutlin 0.077 | alisertib -0.085 | [5] -0.053 | gefitinib 0.099 | [6] -0.22 | lapatinib 0.1 | pictilisib 0.003

NSMCE1 (UniProt Q8WV22)
inactive: saracatinib 0.013 | sotrastaurin -0.018 | alvocidib -0.035 | Tubastatin A 0.011 | [1] 0.249 | defactinib 0.13 | rucaparib 0.061 | [2] 0.026 | encorafenib 0 | [3] -0.19 | [4] -0.019 | filanesib -0.003 | zotarolimus 0.001 | idasanutlin -0.121 | alisertib -0.059 | [5] 0.125 | gefitinib 0.465 | [6] 0.074 | lapatinib -0.023

Two neighbouring entries already listed:
NUB1 (UniProt Q9Y5A7)
inactive: saracatinib -0.037 | sotrastaurin -0.085 | alvocidib -0.05 | Tubastatin A 0.153 | [1] 0.06 | defactinib -0.017 | rucaparib 0.153 | [2] 0.09 | encorafenib 0.044 | [3] 0.055 | [4] -0.042 | filanesib 0.147 | zotarolimus 0.039 | idasanutlin 0.111 | alisertib -0.088 | [5] -0.12 | gefitinib 0.068 | [6] -0.005 | lapatinib 0.002 | pictilisib 0.143

NT5DC2 isoform 2 (UniProt Q9H857)
inactive: saracatinib 0.026 | sotrastaurin 0.086 | alvocidib -0.005 | Tubastatin A -0.035 | [1] -0.001 | defactinib -0.016 | rucaparib -0.009 | [2] -0.036 | encorafenib 0.008 | [3] -0.004 | [4] -0.005 | filanesib -0.046 | zotarolimus -0.007 | idasanutlin -0.076 | alisertib -0.076 | [5] 0.015 | gefitinib 0.017 | [6] 0.087 | lapatinib 0.017 | pictilisib 0.01

Remaining list, next part:

NUDCD3 (UniProt Q8IVD9)
inactive: saracatinib -0.012 | sotrastaurin -0.08 | alvocidib -0.119 | Tubastatin A 0.062 | [1] 0.021 | defactinib -0.15 | rucaparib -0.003 | [2] 0.042 | encorafenib 0.029 | [3] -0.015 | [4] -0.029 | filanesib 0 | zotarolimus 0.031 | idasanutlin 0.001 | alisertib -0.046 | [5] 0.03 | gefitinib -0.008 | [6] -0.035 | lapatinib -0.017 | pictilisib 0.001
